Patent publication US20120100109A1, “Method for increasing the replication of oncolytic HSVs in highly resistant tumor cells using mTOR pathway and PI3K inhibitors” (priority 2010, published 2012)
“Also recorded” adds a separate entry of the source. For at least one compound, name, drawing or mass did not settle the structure. Some results were stated once for a whole list of compounds, not compound by compound.

Tests used:
[1] = test system: highly resistant tumor cells (EC9706, MCF-7 and Hela cells); assay: Spread and replication of Baco-1 (GFP) in highly resistant tumor cell monolayers (FIG. 3B, 3C); format: cell-based
EC9706 cells = assay: Baco-1 virus yield (plaque assay) with or without drug, EC9706 cells; format: cell-based, human; details: for Virus increase after pre-incubation with drug compared with drug present during infection: EC9706 cells preincubated with drug, Baco-1
Method: (§1) A. EC9706 cells were either preincubated with rapamycin overnight (Pre-Inf) or incubated with the drug during the virus infection (During-Inf). They were then infected with Baco-1 at 0.1 pfu/cell and for 72 h. Fold increase in virus yield was calculated by dividing […]. […] B. MCF-7 and HeLa cells were infected with Baco-1 at 0.01 pfu/cell for 1 h. Then the cells were cultured in medium without (control) or with rapamycin at a concentration of 100 nM for 72 h before harvesting for virus titration.

EC9706 tumors [2] = details: 50 μg/kg body weight daily, drug given alone; cited from earlier work
[3] = test system: resistant tumor cells (EC9706, MCF-7, HeLa); assay: Baco-1 virus yield in resistant tumor cells with or without rapamycin (FIG. 2B, 2C); format: cell-based
Method: FIG. 2. […] Virus yield, as determined by plaque assay. Values represent the mean±SD of triplicate experiments.
as §1

EC9706 tumors [4] = assay: Antitumor effect against EC9706 tumor xenografts in immune-deficient mice (FIG. 5); format: in vivo
[5] = test system: permissive tumor cells (MDA-MB-231, Huh-7 and Hep-G2 cells); assay: Spread of Baco-1 (GFP) in permissive tumor cell monolayers (FIG. 3A); format: cell-based; details: Baco-1 0.1 pfu/cell, rapamycin 100 nM, 48 h postinfection
permissive tumor cells = assay: Baco-1 virus yield in permissive tumor cells with or without rapamycin (FIG. 1); format: cell-based; details: three permissive tumor cell lines, rapamycin in culture medium

O=c1cc(N2CCOCC2)oc2c(-c3ccccc3)cccc12 [LY294002]
Effect of LY294002 on replication and spread of Baco-1 ([1]; resistant cells, Baco-1 0.01 pfu/cell, LY294002 50 μM, FIG. 3C): increase the spread of oncolytic HSV; also recorded: significantly enhances the replication and spread; also recorded: dramatically enhance the spread | Virus increase after pre-incubation with drug compared with drug present during infection (EC9706 cells): same level of virus increase | Fold increase in virus yield (EC9706 cells; EC9706 cells, Baco-1 0.1 pfu/cell, 72 h, drug in the medium, FIG. 2A): more than 6 fold

CO[C@H]1C[C@@H]2CC[C@@H](C)[C@@](O)(O2)C(=O)C(=O)N2CCCC[C@H]2C(=O)O[C@H]([C@H](C)C[C@@H]2CC[C@@H](O)[C@H](OC)C2)CC(=O)[C@H](C)/C=C(\C)[C@@H](O)[C@@H](OC)C(=O)[C@H](C)C[C@H](C)/C=C/C=C/C=C/1C [rapamycin]
Effect of rapamycin alone on EC9706 tumor growth (Hou et al.) (EC9706 tumors [2]): only marginally affect EC9706 tumor growth | Effect on yield of oncolytic HSV ([3]; MCF-7 and HeLa cells, rapamycin in culture medium, FIG. 2B): significant increase in the yield | Increase of virus yield in the presence of rapamycin ([3]; resistant tumor cells, Baco-1, FIG. 2C): more than a log | Effect of rapamycin on spread of Baco-1 ([1]; resistant cells, Baco-1 0.01 pfu/cell, rapamycin 100 nM, FIG. 3B): increase the spread of oncolytic HSV; also recorded: infecting almost the entire cell monolayer by 96 h postinfection; also recorded: dramatically enhance the spread | Effect on growth of EC9706 tumors (EC9706 tumors [4]; Baco-1 1×10^6 intratumorally, rapamycin 50 μg/kg intraperitoneally daily, alone or combined): slowed the growth | Later course of tumor growth (EC9706 tumors [4]; by 10-18 days postinjection, 22-day observation period): regain their initial growth rates | Effect of rapamycin on spread of Baco-1 [5]: not substantially affected; also recorded: did not show any effect on the spread | Effect of rapamycin on spread of Baco-1 ([5]; listed as Rapamycin): did not show any effect on the spread | Effect of rapamycin on Baco-1 virus yield (permissive tumor cells): does not significantly enhance the virus yield | Effect of rapamycin on Baco-1 virus yield (permissive tumor cells; listed as Rapamycin): no effect on virus replication | Virus increase after pre-incubation with drug compared with drug present during infection (EC9706 cells): same level of virus increase

COC[C@H]1OC(=O)c2coc3c2[C@@]1(C)C1=C(C3=O)[C@@H]2CCC(=O)[C@@]2(C)C[C@H]1OC(C)=O [wortmannin]
Effect on Baco-1 replication ([1]; highly resistant tumor cells, infected cells incubated with inhibitor): does not result in any significant increase in Baco-1 replication
